Measurements from “University of Dundee, Small-Polar-MMV Screening Library” (2021), ChEMBL document CHEMBL3988442.

A: 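Whole-cell assay for inhibitors of Mycobacterium tuberculosis growth, labelled Cornell in the record; the read-out is not stated. The concentration is filed as 10 mM, unlikely as a test dose, so the dose is not known. The record gives no direction; compounds strong in two other growth screens of this library score well above the rest, so higher reads as stronger inhibition. About 53,000 compounds were tested under these conditions; 1.7% (about 900) showed 50% or more at least once.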
B: 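Assay on Mycobacterium tuberculosis, filed only as a heat shock assay from Cornell; the read-out is not stated. The concentration is filed as 10 mM, unlikely as a test dose, so the dose is not known. Direction is inferred from retests: higher values go with stronger inhibition. About 69,000 compounds were tested under these conditions; 1.4% (about 930) showed 50% or more at least once.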

Each number is a percent effect as filed. The controls that fix the scale are not given in the record; negative values are as filed. Compounds were drawn at random from those tested, without regard to their results. A dash means the value is not listed here; it may have been measured.

compound | A | B
CCn1cc(CN2CCCN(C(=O)c3c(C)oc(C)c3C)CC2)cn1 | - | 9.554
CN1CCC(Cc2cncc(-c3ccccc3C(=O)O)n2)C1 (stereo not given) | -31.18 | -11.23
O=C(CC1CCCC1)NCCS(=O)(=O)N1CCN(c2ccccn2)CC1 | -6.415 | -0.1811
Cc1csc(NC(=O)CN2CCC(c3ccnn3CCO)CC2)n1 | -2.226 | 10.84
CN(C)C(=O)CCCNC(=O)C(c1cccc(F)c1)N(C)C (stereo not given) | - | -16.09
CCc1ncc2c(n1)CN(C(=O)CCCc1ccc(OC)cc1)C2 | - | 14.83
COc1c(CNCc2cccnc2OC(C)C)c(C(C)C)nn1C | 12.94 | 14.38
O=C1NCCCC[C@@H]1Nc1ccc(-c2nc(C3CC3)no2)cn1 | - | -15.44
CS(=O)(=O)NCCC(=O)Nc1ccccc1N1CCc2ccccc21 | - | 0.2546
CN(C)C1CCCN(C(=O)NCCNC(=O)C2CCCC2)C1 (stereo not given) | 22.06 | 12.4
Cc1cc(CN(C)C(=O)NC(C)Cc2ccco2)no1 (stereo not given) | -2.696 | -9.573
CCOCn1cc(NC(=O)C2CCN(S(C)(=O)=O)CC2)cn1 | -4.844 | -10.98
O=S(=O)(Cc1ccccc1F)NCCN1CCOCC1 | 14.22 | 1.613
CC(SCCC(=O)NC(N)=O)c1cccc(F)c1 (stereo not given) | 7.169 | -5.838
Cc1cc(-c2nccn2CCN2CCCCC2CO)oc1C (stereo not given) | -2.313 | 36.99
Cc1nc(CN2CCN(C(=O)c3cc(C4CC4)on3)CC2)cs1 | - | -16.68
COc1cc(-c2nc3c([nH]2)CCCNC3=O)ccc1OC(C)C | 1.992 | 2.488
O=C(O)C(F)(F)F.[H][C@]12C[C@@H](CN(C)C)N(C(C)=O)[C@@]1([H])CCN(C(=O)c1cccc(F)c1)C2 | 10.74 | -19.62
Cc1cc(C)n(CC2(CNC(=O)C(c3ccc(F)cc3)N(C)C)CC2)n1 (stereo not given) | -1.012 | -8.487
O=C(C1CCCC1)N1CCC(c2ccnc(Nc3cnccn3)n2)C1 (stereo not given) | -20.7 | -4.938
O=C(NC1CCS(=O)(=O)C1)c1ccc(SCc2cscn2)cc1 (stereo not given) | - | 1.151
Cn1cc(C2COC3(CCN(C(=O)c4ccsc4)CC3)C2)cn1 (stereo not given) | 20.14 | 4.055
CS(=O)(=O)N1CCC2(CC1)CN(CC1CCOC1)c1ccccc12.O=C(O)C(F)(F)F (stereo not given) | 24.53 | 31.97
O=C(NCCC1CCN(CC(F)(F)F)CC1)C1CCCOC1 (stereo not given) | 1.019 | 0.1654
CSCCC(=O)N1CCCC(c2ncc[nH]2)C1 (stereo not given) | 7.779 | 14.95
Cc1ccc(-n2nnnc2C2(NCc3ccco3)CCCC2)cc1 | -0.36 | -10.59
NC(=O)C1CCCN1Cc1cccc(NC(=O)c2ccc(Cl)cc2F)c1 (stereo not given) | -4.35 | 6.142
COc1cc(CNCC(O)c2ccc(C)cc2)cc2c1OCO2.Cl (stereo not given) | - | -8.52
O=C1NCCN1C1CCCN(Cc2coc(-c3cccs3)n2)C1 (stereo not given) | 12 | -9.119
CC(C)(NC(=O)c1ccc(-c2ccccc2F)s1)C(N)=O | -4.207 | -13.1
Cc1nc(CN2CCCC(NCc3cnc(C(C)(C)C)s3)C2)no1 (stereo not given) | - | -10.64
CN(CCc1ccccn1)C(=O)c1cccs1.Cl | -14.36 | -27.96
CCCNC(=O)NCc1ccccc1NS(=O)(=O)c1ccccc1 | -6.676 | 8.676
CCNc1cc2c(nn1)CCN(C(=O)Cc1ccc3c(c1)CCO3)C2 | -1.209 | -4.444
O=C(NCC1CCCO1)c1nc2c(s1)CCCN2c1ncccn1 (stereo not given) | -20.51 | -17.32
CCNc1cc2c(nn1)CCN(C(=O)c1ccc(C(N)=O)cc1)C2 | - | -61.13
CC1CN(CC(=O)NCc2ccc(F)cc2)CCN1c1nccs1 (stereo not given) | -37.87 | -11.79
O=C(O)C(F)(F)F.[H][C@@]12CCN(CC3CCOCC3)[C@@]1([H])CCN2C(=O)c1ccc(C)c(F)c1 | 7.913 | -13.84
O=C(O)C(F)(F)F.[H][C@@]12CCN(c3nncs3)[C@@]1([H])CCN2C(=O)C1CCOCC1 | 7.356 | -22.51
O=C(O)C(F)(F)F.[H][C@@]12CCN(Cc3ccc(C)o3)[C@@]1([H])CCN2C(=O)Cc1cccs1 | 2.395 | 47.69
CCN(CC)C(CNC(=O)c1ccnc(N(C)C)c1)c1ccsc1 (stereo not given) | -9.65 | -19.36
CN(C)c1ncccc1CNC(=O)NCc1cccs1 | - | -6.648
CC(C)Sc1ccc(C(C)NC(=O)CNS(C)(=O)=O)cc1 (stereo not given) | - | -8.071
CCC(NC(=O)CN(C)Cc1ccc(C)o1)c1ccc(Br)cc1 (stereo not given) | - | 0.1322
Cc1nonc1NC(=O)C1SCCc2ccccc21 (stereo not given) | 7.918 | 16.38

The first 5 entries again:

* CCn1cc(CN2CCCN(C(=O)c3c(C)oc(C)c3C)CC2)cn1 | B: 9.554%
* CN1CCC(Cc2cncc(-c3ccccc3C(=O)O)n2)C1 (stereo not given) | A: -31.18%; B: -11.23%
* O=C(CC1CCCC1)NCCS(=O)(=O)N1CCN(c2ccccn2)CC1 | A: -6.415%; B: -0.1811%
* Cc1csc(NC(=O)CN2CCC(c3ccnn3CCO)CC2)n1 | A: -2.226%; B: 10.84%
* CN(C)C(=O)CCCNC(=O)C(c1cccc(F)c1)N(C)C (stereo not given) | B: -16.09%